In paper PMC10163288:
The other results are listed elsewhere or left out.

B1: il2ra_site2_3nfp_normal_mot_HHH_b1_07318_af2_000000161_0001_22_38_H_._HHH_b2_01617_0001_0000400032_0000001_1 (protein)
chain: SSSSDAELAAEDLLALLERLGDEESFRELEELLEKLKETGDPEDQLELYELIREIFEELQSSSSS
B2: il2ra_site1_1z92_normal_mot_HHH_b2_06308_af2_000000104_0001_1_20_H_._ea6b996f6416bdbfe5a1271cf9e5b7ac_0001_1_0001_0000200033_0000001_0_af2pred_0001_af2pred_1 (protein)
chain: PEEFLREQLEKKLKRDPEAAKKLLEKLLRAEGVPPEEIEKILRQVEELAKRDPEKAAELAIELLR
B3: il2ra_site2_2erj_normal_mot_b5c6f2848cbf55e1ecbd417c35b42da7_0001_af2_000000155_0001_1_14_H_._HHH_b1_03316_af2_0001_0000300008_0000001_0 (protein)
chain: SSSSDSLEELQELIEKAFENNDRSRLKLLIRYLELSLKQTGDPRVEELLREAEELLERLNSSSSS
B4: il2ra_site2_2erj_normal_mot_HHH_b1_03609_af2_000000077_0001_42_55_H_._HHH_b2_01692_0001_0000500006_0000001_0 (protein)
chain: SSSSSEVEEEVREILEEAKHIEDPEEREKVLSKAAELAFENNDFEAWSLVSEVFRELAESSSSSS
B5: il2ra_site2_3nfp_normal_mot_7cf5847eaa050a71bc877a27954f5424_0001_1_af2_000000114_0001_17_30_H_._c458a205a670bde904f9ae2de9a5ce79_0001_1_0001_0000100001_0000001 … (protein)
chain: SFRILLEEAVEEGNLEEVLKKFVERAEELSGNPEDARSLAKAAIERVLPDPRLQEEAKKIVEEVG
B6: il2ra_site2_3nfp_sap_24_mot_HHH_b2_04623_000000077_0001_1_15_H_._c2dd1dc352432ff47dded349a4d391fc_0001_1_0001_0000500054_0000001_0_0001 (protein)
chain: SSSSSSDHEFYERVVKLLKKANRIEDEEELQKVLEEARELAEELGSEVLRRSVEDTAKALSSSSS
B7: il2ra_site1_2b5i_normal_mot_HHH_b2_04353_af2_000000128_0001_1_17_H_._HHH_b1_04049_0001_0000200012_0000001_0_af2pred_dldesign_0_af2pred (protein)
chain: SSSSSDPEEEVYDLFKEALRLRKAGKREEARKVLEKALEKAKELGNEKLVSELERLLKLLSSSSS
B8: il2ra_site1_1z92_normal_mot_57fbbab2d607e533440bfb1b251026a3_0001_af2_000000189_0001_1_16_H_._HHH_b1_08204_0001_0000300017_0000001_1_1_af2pred_0001_af2pred_1 (protein)
chain: SSSSSDEELLEEAERLVEEVEEKRDARLRFEVAEFINEAAKKVDDPEIFERLAELFELLSSSSSS
B9: il2ra_site2_3nfp_sap_20_mot_HHH_b1_05796_000000051_0001_39_56_H_._52ba57536a5f4d361b988889b6b0b76f_0001_0001_0000100005_0000001_0_0001 (protein)
chain: SSSSDEEEKELEKLLEELKKAVEDGDEELVRRIRARVTQLAWELGDAEVFFEVAELAIALNSSSS
B10: il2ra_site1_1z92_normal_mot_HHH_b1_07140_000000289_0001_23_40_H_._HHH_b2_05789_af2_0002_0000200026_0000001_0_af2pred_0001_af2pred_1 (protein)
chain: SSSSSDEREIAKEALELFEEANKVKDEEELEELLEKALELAREGNNERLVKSLERLLDDDSSSSS
B11: il2ra_site1_3nfp_sap_8_mot_93ec910cbd4ebb8dd092c1ac1e61ab37_0001_1_af2_000000101_0001_16_31_H_._22fa1065b69cf192845a0250a7ccff51_0001_1_0001_0000400021_0000001_ … (protein)
chain: SSSSDSVEWLQEMIERAFENNDRRQLRVLIKILEKAAEQFGDPEVEKLLEEAERLLEELNSSSSS
B12: il2ra_site1_3nfp_sap_18_mot_HHH_b2_00162_af2_000000036_0001_22_38_H_._28c41ff5ff93e4e540bfc34eab8aed47_0001_af2_0001_0000300023_0000001_0_0001 (protein)
chain: SSSSDREAFELAEEVYEVIKEGDEERVRELLEELRKWVEEEGDKVDEYFLRMLEQAAERQFSSSS
B13: il2ra_site1_1z92_sap_17_mot_HHH_b2_04325_000000036_0001_39_52_H_._ad6fc7cc688aee799991fbcb742478cf_0001_1_af2_0001_0000900052_0000001_0_0001 (protein)
chain: SSSSDARERIEELAEFLHRDARKTNNEWALRLLEALLRKARKLGDEELEERIEELIERLKSSSSS
B14: il2ra_site2_3nfp_sap_19_mot_HHH_b2_04230_000000235_0001_39_52_H_._771ca5fb7044fd74913a74cac1256c5f_0001_0001_0000400024_0000001_0_0001 (protein)
chain: SSSSDEEEREVEELLEEAKKISDEEERRKVLAKAAHIAWEARNPELFFLVAEVLTELIQKSSSSS
B15: il2ra_site2_2erj_sap_10_mot_HHH_b2_07568_000000046_0001_18_34_H_._HHH_b1_08658_0001_0000400009_0000001_0_0001 (protein)
chain: SSSSSSDIHERVREEFEEAAERNDLHALYEIANRLTHLASKLNDPELLELARELVERASSSSSSS
B16: il2ra_site2_3nfp_normal_mot_HHH_b1_04781_af2_000000057_0001_1_18_H_._3b61d7363a4279ee81a7dec5202e1ad9_0001_af2_0001_0000100003_0000001_0 (protein)
chain: DAVEEAIHNIERKDEELSELLEEVLRLIEEKKDPELQLLLYAAIVAVYRGNPEEAKEILKEALER
B17: il2ra_site2_2erj_normal_mot_HHH_b1_03464_000000177_0001_1_14_H_._HHH_b1_07054_0001_0000500044_0000001_1_af2pred_0001_1_af2pred_swapped (protein)
chain: SSSSDVEERIQELLEEAEEILEKHKDPQKAFLVVQEAAFLAARNRNDELLKEVMELAQRINSSSS
B18: il2ra_site1_3nfp_sap_14_mot_HHH_b2_04095_af2_000000160_0001_43_56_H_._HHH_b2_03688_af2_0001_0000300040_0000001_1_0001_af2pred_0001_af2pred_1 (protein)
chain: SSSSTRKSRELIESAEELAERLNDPETLRELEELRERYEEEGDQRLLQRVFELLAELLRRFSSSS

molecular target: il2ra, P01589; assay: yeast display titration

Apparent Kd, inactive:
B1 no binding seen, B2 no binding seen, B3 no binding seen, B4 no binding seen, B5 no binding seen, B6 no binding seen, B7 no binding seen, B8 no binding seen, B9 no binding seen, B10 no binding seen, B11 no binding seen, B12 no binding seen, B13 no binding seen, B14 no binding seen, B15 no binding seen, B16 no binding seen, B17 no binding seen, B18 no binding seen
